According to article PMC5947560:
Results are given in words; binding and its absence hold for the method and conditions named. Binding seen in cells or lysates may run through a third protein. Some binding calls cover weakened binding; strength is not graded here.

Biological target: T1, Arl1 (S. cerevisiae) (UniProt P38116)
T1 sequence: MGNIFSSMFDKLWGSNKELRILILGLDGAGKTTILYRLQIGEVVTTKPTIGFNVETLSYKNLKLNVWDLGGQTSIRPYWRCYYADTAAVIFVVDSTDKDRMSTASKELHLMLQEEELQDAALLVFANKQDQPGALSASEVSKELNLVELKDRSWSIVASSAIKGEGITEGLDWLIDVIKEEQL
Experiment: co-IP; co-immunoprecipitation, data not shown; no details given

B1: Lam5 (protein, UniProt P43560 1-674)
chain: MSDVDNWEPVSDNEDSTDSVKQLGPPFEHASNNDNAGDTEAESLQEVPLNTETNDVRKNLVVITNQSAADEHPTEIKHDQSRTSSTSSFFSGMISSFKSNVPSPVSRSTTPTSPVSQPSIISHRREPSMGSKRRSSRRISNATIAEIGSPLQQVEKPDEVKTRLTPSQMKEDNYDHRRFVEERYMDTPYHYASEQRNKDFHETFKSVPKDDRLLDDFNCGLNRELLYQGKLYITETHLCFNSNVLGWIAKVLIAFEDVTFMEKTSAAGLFPSAISIETKMGKTLFNGFISRDAAFGLMKEVWSRTLLQKDMASENINTKAEKSGNGKEIDDAINSIDEENNDKDANDNDTNENDDENISTNETTPNSTSSSPDKEKEKAYKLRADSSYQYDGPIYHHSTSFPAEPMANNEFVLKELPFDCAPGILFEIMFNSEQNEFLLDFLRGQEGSQITTIPNFTSIDGSSMTLKREYSYEKALHFPAGPKSTTCYVAEVIKRKDPDTYYEVISSIRTPNVPSGGSFSTKTRYLIRWNDEITCLLRVSFWVEWTGSSWIKGMVENGCKNGQLEAAQLMERILSKFIKNNVEECQITISKEEEEQDDKEVKNKLKEVDLEQPREAVVTAPAIAEQQGLKVTMETWLFLYLIVVVLLLFNLFYIRSIAVSLHQLVKLQLVELKL
Q: Which binding does the source give for B1 here?
A: binds
